The test relates to L1210 leukemia ip in BDF1 mice, survival T/C. Description: NCI In Vivo Anticancer Drug Screen. Data for tumor model L1210 Leukemia (intraperitoneal) in B6D2F1 (BDF1) mice. To be noted: T/C endpoint: mean survival time, higher T/C = longer survival.
Setting [1] is: dose: 100.0 mg/kg/injection, schedule: Q01DX009 (ip), vehicle: saline with Tween-80.
The mark [2] stands for this setting: dose: 200.0 mg/kg/injection, schedule: Q01DX001 (ip), vehicle: saline.
[3] abbreviates: dose: 200.0 mg/kg/injection, schedule: Q01DX009 (ip), vehicle: saline with Tween-80.
Where [4] appears, read: dose: 200.0 mg/kg/injection, schedule: Q04DX003 (ip), vehicle: saline with Tween-80.
[5] abbreviates: dose: 400.0 mg/kg/injection, schedule: Q01DX001 (ip), vehicle: carboxymethylcellulose (CMC).
Setting [6] is: dose: 400.0 mg/kg/injection, schedule: Q01DX001 (ip), vehicle: saline.
Setting [7] is: dose: 400.0 mg/kg/injection, schedule: Q01DX001 (ip), vehicle: other.
Setting [8] is: dose: 200.0 mg/kg/injection, schedule: Q04DX002 (ip), vehicle: Klucel (hydroxypropylcellulose) (HPC).
Setting [9] is: dose: 400.0 mg/kg/injection, schedule: Q04DX002 (ip), vehicle: Klucel (hydroxypropylcellulose) (HPC).
[10] abbreviates: dose: 600.0 mg/kg/injection, schedule: Q01DX001 (ip), vehicle: saline.
The mark [11] stands for this setting: dose: 400.0 mg/kg/injection, schedule: Q04DX003 (ip), vehicle: Klucel (hydroxypropylcellulose) (HPC).

Structures are written as SMILES. The list is a part of this screen's results and no random one: it is rich in T/C values a quarter to a half above the control, in often repeated tests (any T/C) and in doses without a T/C. Further doses and runs are listed elsewhere. T/C gives the treated animals as a percentage of the vehicle group. Some doses have a count of surviving animals in place of a T/C: the source files T/C as zero there, which appears to mark a toxic dose or a test without result, not a measured value. Some doses without a T/C left all or most animals alive at the check, yet need not have been tolerated: survival well below the control is almost never listed, so the zero probably covers shortened survival too. Survivors were counted at the toxicity check, usually on the fifth day, unless a day is given; later deaths do not show. Schedule codes are those of the source, read here as Q, the interval in days (D) or hours (H), X, the number of doses. Some doses were run more than once; their values stand side by side, smallest first. Some schedules carry Z or #; the key to these is not given. For survival time, this PubChem deposit counts one and a half times the control or more as active, and values a quarter to a half above the control carry no call in these data; other NCI protocols may use other cut-offs.

On to `Nc1ncnc2c(C3OC(CO)C(O)C3O)[nH]nc12` (centres undefined), for which the survivor count is given as 6 of 6 (dose: 50.0 mg/kg/injection, schedule: Q01DX009 (ip), vehicle: saline with Tween-80); 6 of 6 (dose: 90.0 mg/kg/injection, schedule: Q04DX003 (ip), vehicle: saline with Tween-80); 4 of 6 under setting [1]; 2 of 4 under setting [2]; 1 of 6 under setting [3]; 5 of 6 under setting [4]. Further, the survivor count runs as follows: under setting [5], 1 of 4; under setting [6], 2 of 4; (dose: 400.0 mg/kg/injection, schedule: Q04DX003 (ip), vehicle: saline with Tween-80) 2 of 6. Under setting [4], the T/C was 127 % of control.

On to `CC(C)N(CCC(=O)CC12CC3CC(CC(C3)C1)C2)C(C)C`, for which the survivor count was 0 of 3 (dose: 200.0 mg/kg/injection, schedule: Q04DX002 (ip), vehicle: saline) and 0 of 3 (dose: 400.0 mg/kg/injection, schedule: Q04DX002 (ip), vehicle: saline).

Turning to `O=c1[nH]cnc2c1ncn2Cc1ccc([N+](=O)[O-])cc1`, the survivor count under setting [7] is 3 of 6.

With `COc1ccc(C2=C(C)CC3c4cc(OC)c(OC)cc4CCN3C2)cc1OC` (centres undefined), the survivor count by setting is: (dose: 118.0 mg/kg/injection, schedule: Q01DX001 (ip), vehicle: carboxymethylcellulose (CMC)) 2 of 6; (dose: 177.0 mg/kg/injection, schedule: Q01DX001 (ip), vehicle: carboxymethylcellulose (CMC)) 1 of 6; (dose: 266.0 mg/kg/injection, schedule: Q01DX001 (ip), vehicle: carboxymethylcellulose (CMC)) 0 of 6; under setting [5], 0 of 6; (dose: 600.0 mg/kg/injection, schedule: Q01DX001 (ip), vehicle: carboxymethylcellulose (CMC)) 0 of 6.

For `C=CC[Se]c1ncnc2c1ccn2C1OC(CO)C(O)C1O` (centres undefined), the survivor count (dose: 200.0 mg/kg/injection, schedule: Q01DX005 (ip), vehicle: saline) is recorded as 1 of 6.

In the case of `O=[N+]([O-])c1ccc(F)c(Cl)c1F`, the survivor count reads like this: (dose: 100.0 mg/kg/injection, schedule: Q04DX002 (ip), vehicle: Klucel (hydroxypropylcellulose) (HPC)) 0 of 3; under setting [8], 0 of 3; under setting [9], 0 of 3.

For the molecule `CCC[CH2][Ge]([CH2]CCC)[O][Ge]([CH2]CCC)[CH2]CCC`, the survivor count runs as follows: (dose: 200.0 mg/kg/injection, schedule: Q04DX002 (ip), vehicle: saline with Tween-80) 2 of 3; (dose: 400.0 mg/kg/injection, schedule: Q04DX002 (ip), vehicle: saline with Tween-80) 0 of 3.

`N#C[SH2+].N#C[SH2+].N#C[SH2+].N#C[SH2+].[Cu+2].c1ccc(C[P+](c2ccccc2)(c2ccccc2)c2ccccc2)cc1`: the survivor count was 4 of 6 (dose: 12.0 mg/kg/injection, schedule: Q01DX009 (ip), vehicle: saline); 4 of 6 (dose: 25.0 mg/kg/injection, schedule: Q01DX009 (ip), vehicle: saline); 0 of 6 (dose: 100.0 mg/kg/injection, schedule: Q01DX001 (ip), vehicle: saline); 0 of 6 under setting [2]; 0 of 6 under setting [6].

For the molecule `O=c1ccc2ccccc2o1`, the survivor count runs as follows: (dose: 250.0 mg/kg/injection, schedule: Q01DX Z (ip), vehicle: carboxymethylcellulose (CMC)) 1 of 6; (dose: 375.0 mg/kg/injection, schedule: Q01DX Z (ip), vehicle: carboxymethylcellulose (CMC)) 0 of 6; under setting [7], 2 of 4.

In the case of `C=C(NC(=O)C(=C)NC(=O)c1csc(C2=NC3c4csc(n4)C4NC(=O)c5csc(n5)C(C(C)(O)C(C)O)NC(=O)C5CSC(=N5)/C(=C/C)NC(=O)C(C(C)O)NC(=O)c5csc(n5)C3(CC2)NC(=O)C(C)NC(=O)C(=C)NC(=O)C(C)NC(=O)C(C(C)CC)NC2C=Cc3c(C(C)O)cc(nc3C2O)C(=O)OC4C)n1)C(N)=O` (centres undefined), the T/C is 135 % of control (dose: 200.0 mg/kg/injection, schedule: Q04DX003 (ip), vehicle: saline); 125 % of control (dose: 266.0 mg/kg/injection, schedule: Q01DX001 (ip), vehicle: saline); 128 % of control under setting [6]; 139 % of control (dose: 400.0 mg/kg/injection, schedule: Q04DX003 (ip), vehicle: saline); 130 % of control under setting [10]; 141 % of control (dose: 900.0 mg/kg/injection, schedule: Q01DX001 (ip), vehicle: saline).

`Cn1c(=O)c2c(nc(NCC[N+](C)(C)C)n2C)n(C)c1=O`: the survivor count is, setting by setting: (dose: 60.0 mg/kg/injection, schedule: Q01DX001 (ip), vehicle: saline) 0 of 6; (dose: 75.0 mg/kg/injection, schedule: Q01DX001 (ip), vehicle: saline) 0 of 6; (dose: 150.0 mg/kg/injection, schedule: Q01DX001 (ip), vehicle: saline) 0 of 6; (dose: 300.0 mg/kg/injection, schedule: Q01DX001 (ip), vehicle: saline) 0 of 6.

Regarding `C1=C(c2ccccc2)C(c2ccccc2)c2ccccc21` (centres undefined), the survivor count reads like this: (dose: 100.0 mg/kg/injection, schedule: Q04DX003 (ip), vehicle: saline with Tween-80) 5 of 6; under setting [4], 6 of 6.

With `CC1CC(C)OS(=O)O1` (centres undefined), the survivor count (dose: 150.0 mg/kg/injection, schedule: Q01DX Z (ip), vehicle: saline) was 6 of 6.

For `OCC1OC(n2cnc3c(=S)nc[nH]c32)CC1O` (centres undefined), the T/C runs as follows: (dose: 63.0 mg/kg/injection, schedule: Q01DX015 (ip), vehicle: saline) 125 % of control; (dose: 108.0 mg/kg/injection, schedule: Q01DX015 (ip), vehicle: saline) 125 % of control; under setting [6], 129 % of control; under setting [10], 131 % of control.

Regarding `CCOC(=O)NCC(CCN1CCCC1)(c1cccc2ccccc12)C(C)C` (centres undefined), the survivor count (dose: 25.0 mg/kg/injection, schedule: Q04DX003 (ip), vehicle: Klucel (hydroxypropylcellulose) (HPC)) is 6 of 6.

For the molecule `CC1=C2[C@H]3OC(=O)[C@@H](C)[C@@H]3CC[C@@]2(C)C=CC1=O`, the survivor count is, setting by setting: under setting [6], 1 of 6; under setting [11], 0 of 6.

`Cc1c(Cl)cccc1NC(=O)Oc1ccccc1Cc1ccccc1`: the T/C under setting [1] is given as 87, 89, 91, 93 % of control. Under setting [3], the T/C is 90, 91, 94 % of control and the survivor count was 6 of 6.

As for `CC(C)NC(=O)c1cc(NC(=O)c2ccc(C(=O)Nc3cc(C(=O)NC(C)C)cc(C4=NCCN4)c3)cc2)cc(C2=NCCN2)c1`, the survivor count (dose: 75.0 mg/kg/injection, schedule: Q01DX015 (ip), vehicle: water) is reported as 2 of 6 and the survivor count (dose: 150.0 mg/kg/injection, schedule: Q01DX015 (ip), vehicle: water) is given as 0 of 6.

On to `CS(=O)(=O)OCCN(CCOS(C)(=O)=O)c1ccccc1`, for which the survivor count is, setting by setting: (dose: 200.0 mg/kg/injection, schedule: Q01DX001 (ip), vehicle: other) 1 of 4; under setting [7], 0 of 4.

On to `O=C(c1ccccc1)C(Cl)C(=O)c1ccccc1`, for which the survivor count was 3 of 6 (dose: 200.0 mg/kg/injection, schedule: Q04DX003 (ip), vehicle: Klucel (hydroxypropylcellulose) (HPC)) and 1 of 6 under setting [11].

Turning to `CCCCCCCCCCCCCC(=O)N(CC)CC`, the survivor count (dose: 400.0 mg/kg/injection, schedule: Q01DX009 (ip), vehicle: carboxymethylcellulose (CMC)) is 3 of 3 and 6 of 6.

In the case of `O=C(Nc1ccc([N+](=O)[O-])cc1)Oc1c(Cl)cc(Cl)c(Cl)c1[N+](=O)[O-]`, the survivor count reads like this: under setting [8], 0 of 3; under setting [9], 0 of 3.

These data come from PubChem BioAssay AID248 (DTP/NCI, 2004).
